No constants are given. Whether binding was seen depends on the method and setting. Binding seen in cells or lysates may run through a third protein. Some binding calls cover weakened binding; strength is not graded here. For some assays here: Tags and fused reporters may be left off the sequences shown.
Legend:
[1] = biological target: T1, Vti1a (endogenous, in HeLa and U2OS cells) (UniProt Q96AJ9); assay: endogenous Co-IP with mouse anti-Stx6 antibody, WT and knockout HeLa cells
T1 sequence (looked up): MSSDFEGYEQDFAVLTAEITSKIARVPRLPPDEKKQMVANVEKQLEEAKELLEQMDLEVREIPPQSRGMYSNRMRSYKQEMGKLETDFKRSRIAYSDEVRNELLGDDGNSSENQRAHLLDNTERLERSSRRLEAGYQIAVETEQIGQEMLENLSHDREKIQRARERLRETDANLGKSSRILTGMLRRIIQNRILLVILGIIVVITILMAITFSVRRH

Chains of the proteins cited; added tags and fusions are not shown. Residues count along the entry.
UniProt Q15836, residues 2-100: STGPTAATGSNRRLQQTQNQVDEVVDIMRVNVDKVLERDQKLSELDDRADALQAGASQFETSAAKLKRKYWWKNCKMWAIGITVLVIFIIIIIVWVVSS
UniProt O95166, residues 1-116: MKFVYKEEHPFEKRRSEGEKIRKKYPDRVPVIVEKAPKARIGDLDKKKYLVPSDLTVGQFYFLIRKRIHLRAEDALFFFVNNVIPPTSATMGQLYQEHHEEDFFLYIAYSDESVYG

[2] = biological target: T1, Vti1a (endogenous, in HeLa and U2OS cells); assay: endogenous Co-IP with mouse anti-Stx6 antibody, HeLa cells
VPS41 (endogenous) = biological target: T2, VPS41 (endogenous) (UniProt P49754); assay: Co-IP with anti-FLAG, HEK293T cells, endogenous VPS41
T2 sequence (looked up): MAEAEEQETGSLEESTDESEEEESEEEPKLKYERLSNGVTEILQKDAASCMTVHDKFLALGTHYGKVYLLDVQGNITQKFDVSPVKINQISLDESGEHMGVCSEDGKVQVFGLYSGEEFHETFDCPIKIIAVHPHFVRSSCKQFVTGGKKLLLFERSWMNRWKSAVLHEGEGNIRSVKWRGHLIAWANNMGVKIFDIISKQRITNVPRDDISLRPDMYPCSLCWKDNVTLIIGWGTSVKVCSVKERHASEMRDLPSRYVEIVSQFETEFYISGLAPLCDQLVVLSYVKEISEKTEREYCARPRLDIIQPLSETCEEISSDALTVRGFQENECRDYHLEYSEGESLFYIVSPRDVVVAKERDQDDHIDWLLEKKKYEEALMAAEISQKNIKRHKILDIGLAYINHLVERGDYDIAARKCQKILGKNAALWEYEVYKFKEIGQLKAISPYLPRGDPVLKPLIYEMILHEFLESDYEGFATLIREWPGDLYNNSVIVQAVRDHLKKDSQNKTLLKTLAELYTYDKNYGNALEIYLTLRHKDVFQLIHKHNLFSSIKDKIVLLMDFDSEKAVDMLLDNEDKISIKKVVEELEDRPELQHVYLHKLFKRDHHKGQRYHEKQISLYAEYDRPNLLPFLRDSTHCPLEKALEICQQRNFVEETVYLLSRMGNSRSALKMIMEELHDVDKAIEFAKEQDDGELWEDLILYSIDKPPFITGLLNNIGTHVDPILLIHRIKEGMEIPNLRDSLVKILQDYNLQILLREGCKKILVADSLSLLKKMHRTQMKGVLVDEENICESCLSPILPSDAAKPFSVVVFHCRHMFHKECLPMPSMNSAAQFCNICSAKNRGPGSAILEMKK

[3] = biological target: VAMP3 (endogenous, in HEK293T cells) (UniProt Q15836); assay: Co-IP of FLAG-tagged Stx6 with endogenous VAMP3, HEK293T cells, full or starved (EBSS 1 h)
[4] = biological target: EGFP-tagged GABARAP (overexpressed in HEK293T cells) (UniProt O95166); assay: Co-IP with anti-FLAG, overexpressed in HEK293T cells, blot with anti-GFP

B1: Stx6 (endogenous, precipitated with mouse anti-Stx6 antibody from HeLa cells) (other, UniProt O43752 2-255, looked up)
chain: SMEDPFFVVKGEVQKAVNTAQGLFQRWTELLQDPSTATREEIDWTTNELRNNLRSIEWDLEDLDETISIVEANPRKFNLDATELSIRKAFITSTRQVVRDMKDQMSTSSVQALAERKNRQALLGDSGSQNWSTGTTDKYGRLDRELQRANSHFIEEQQAQQQLIVEQQDEQLELVSGSIGVLKNMSQRIGGELEEQAVMLEDFSHELESTQSRLDNVMKKLAKVSHMTSDRRQWCAIAILFAVLLVVLILFLVL
notes: also called syntaxin 6
binding [1]: binds

B2: VPS41 (endogenous) (protein, UniProt P49754 1-854, looked up)
chain: T2 sequence (looked up)
binding [2]: binds

B3: FLAG-tagged Stx6 (overexpressed in HEK293T cells) (protein, UniProt O43752 1-255, looked up, not shown: small tags and cut ends)
chain: MSMEDPFFVVKGEVQKAVNTAQGLFQRWTELLQDPSTATREEIDWTTNELRNNLRSIEWDLEDLDETISIVEANPRKFNLDATELSIRKAFITSTRQVVRDMKDQMSTSSVQALAERKNRQALLGDSGSQNWSTGTTDKYGRLDRELQRANSHFIEEQQAQQQLIVEQQDEQLELVSGSIGVLKNMSQRIGGELEEQAVMLEDFSHELESTQSRLDNVMKKLAKVSHMTSDRRQWCAIAILFAVLLVVLILFLVL
binding (VPS41 (endogenous)): binds
binding [3]: binds

B4: Vti1a (endogenous, in HeLa and U2OS cells) (other, UniProt Q96AJ9 1-217, looked up)
chain: T1 sequence (looked up)
binding [4]: binds

Reference: patent US20200262916A1, “Mammalian Atg8 Proteins Control Autolysosomal Biogenesis Through SNARES” (STC. UNM, priority 2019, published 2020)
